{"source": "patent US6410587B1", "about": "“Compounds and therapies for the prevention of vascular and non-vascular pathologies” (NeoRx Corporation, priority 1997, dated 2002)", "test_system": "TGF-beta", "test": "TGF-beta production by human VSMCs in culture", "type": "cell-based", "settings": "VSMC, read-out: ED50 for stimulating TGF-beta production"}
{"smiles": "CC/C(=C(\\c1ccccc1)c1ccc(OCCN(C)C)cc1)c1ccccc1", "note": "[TMX, trans-2-[4-(1,2-diphenyl-1-butenyl)phenoxy]-N,N-dimethylethylamine]", "values": [{"measurement": "EC50", "value": 50, "unit": "nM"}]}
